Structures can show the parent of a compound that is named as a salt. The list shows a part of the results. Hit calls seldom repeat between salt and free forms of one compound.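 Kinases were expressed as nanoluciferase fusions in K562 cells and luminescence was read every 4 h between 2 and 18 h as percent of control, DMSO set to 100% and a positive control to 0%. A time point counts as decreased when the signal drops significantly (2 sigma). The hit call is the authors' own, does not follow from the count of time points alone, and its rule is not shown.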
How the values were obtained:
Test in all cases: kinase-Nluc reporter destabilization hit call (1 = scored as downregulated) (binary); higher = compound decreases kinase abundance
Conditions in all cases: K562; 2-18 h
BRAF_V600E = system: BRAF_V600E
BTK = BTK (UniProt Q06187)
CAMK2A = CAMK2A (UniProt Q9UQM7)
CAMK2G = CAMK2G (UniProt Q13555)
CDK10 = CDK10 (UniProt Q15131)
CDK2 = CDK2 (UniProt P24941)
CDK3 = CDK3 (UniProt Q00526)
CDK4 = CDK4 (UniProt P11802)
CDK5 = CDK5 (UniProt Q00535)
CDK6 = CDK6 (UniProt Q00534)
CDK7 = CDK7 (UniProt P50613)
CDK9 = CDK9 (UniProt P50750)
CHEK2 = CHEK2 (UniProt O96017)
CSF1R = CSF1R (UniProt P07333)
CSK = CSK (UniProt P41240)
CSNK1A1 = CSNK1A1 (UniProt P48729)
CSNK1D = CSNK1D (UniProt P48730)
DDR1 = DDR1 (UniProt Q08345)
DYRK1B = DYRK1B (UniProt Q9Y463)
DYRK2 = DYRK2 (UniProt Q92630)

Amino acid sequences for entries named in this document (tags omitted). A change or cut given only in a name is not applied to a line headed by its entry.
UniProt Q06187: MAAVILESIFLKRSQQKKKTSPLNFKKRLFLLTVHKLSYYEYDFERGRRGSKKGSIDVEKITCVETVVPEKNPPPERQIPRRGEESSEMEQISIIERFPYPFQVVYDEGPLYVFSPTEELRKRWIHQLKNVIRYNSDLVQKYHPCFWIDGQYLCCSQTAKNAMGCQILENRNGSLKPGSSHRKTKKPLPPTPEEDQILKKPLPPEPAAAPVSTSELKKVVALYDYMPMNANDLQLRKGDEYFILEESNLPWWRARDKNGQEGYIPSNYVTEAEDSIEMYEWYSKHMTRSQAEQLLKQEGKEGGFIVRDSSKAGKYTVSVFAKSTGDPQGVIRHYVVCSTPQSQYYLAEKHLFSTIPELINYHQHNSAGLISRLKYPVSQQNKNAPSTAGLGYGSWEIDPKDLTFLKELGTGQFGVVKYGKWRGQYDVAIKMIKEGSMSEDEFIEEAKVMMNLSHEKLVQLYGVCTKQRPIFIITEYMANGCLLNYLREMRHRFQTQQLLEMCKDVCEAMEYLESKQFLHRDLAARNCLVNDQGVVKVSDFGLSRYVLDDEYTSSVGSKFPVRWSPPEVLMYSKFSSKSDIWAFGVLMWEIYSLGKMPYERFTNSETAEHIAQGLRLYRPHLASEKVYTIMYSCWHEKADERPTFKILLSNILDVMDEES
UniProt Q9UQM7, whole entry: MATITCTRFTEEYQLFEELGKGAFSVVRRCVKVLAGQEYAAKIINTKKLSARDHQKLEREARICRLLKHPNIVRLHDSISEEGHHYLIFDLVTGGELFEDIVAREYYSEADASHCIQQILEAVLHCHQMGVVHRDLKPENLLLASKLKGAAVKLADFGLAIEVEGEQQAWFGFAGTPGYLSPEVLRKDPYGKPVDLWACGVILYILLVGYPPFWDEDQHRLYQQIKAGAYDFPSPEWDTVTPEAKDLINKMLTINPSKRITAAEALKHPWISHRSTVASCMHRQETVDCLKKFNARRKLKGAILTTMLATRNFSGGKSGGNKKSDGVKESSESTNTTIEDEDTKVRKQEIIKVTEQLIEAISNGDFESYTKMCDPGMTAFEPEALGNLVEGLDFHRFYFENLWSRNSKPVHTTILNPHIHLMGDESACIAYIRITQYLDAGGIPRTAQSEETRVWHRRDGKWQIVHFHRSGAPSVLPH
UniProt Q13555: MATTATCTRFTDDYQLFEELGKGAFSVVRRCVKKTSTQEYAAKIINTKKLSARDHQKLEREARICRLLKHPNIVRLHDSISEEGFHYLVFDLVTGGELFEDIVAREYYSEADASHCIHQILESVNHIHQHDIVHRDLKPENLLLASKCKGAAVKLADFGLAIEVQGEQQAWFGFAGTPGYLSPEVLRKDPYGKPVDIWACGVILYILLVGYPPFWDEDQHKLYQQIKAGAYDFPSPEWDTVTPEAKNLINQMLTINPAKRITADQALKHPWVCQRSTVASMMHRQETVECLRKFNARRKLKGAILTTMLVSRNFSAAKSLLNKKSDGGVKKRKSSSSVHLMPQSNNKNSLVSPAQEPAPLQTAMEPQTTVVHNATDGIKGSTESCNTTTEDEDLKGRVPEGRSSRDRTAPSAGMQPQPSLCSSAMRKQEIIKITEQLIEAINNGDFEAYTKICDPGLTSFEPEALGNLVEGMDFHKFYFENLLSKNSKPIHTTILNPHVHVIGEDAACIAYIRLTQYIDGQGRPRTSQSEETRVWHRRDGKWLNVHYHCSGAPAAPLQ
UniProt Q00526: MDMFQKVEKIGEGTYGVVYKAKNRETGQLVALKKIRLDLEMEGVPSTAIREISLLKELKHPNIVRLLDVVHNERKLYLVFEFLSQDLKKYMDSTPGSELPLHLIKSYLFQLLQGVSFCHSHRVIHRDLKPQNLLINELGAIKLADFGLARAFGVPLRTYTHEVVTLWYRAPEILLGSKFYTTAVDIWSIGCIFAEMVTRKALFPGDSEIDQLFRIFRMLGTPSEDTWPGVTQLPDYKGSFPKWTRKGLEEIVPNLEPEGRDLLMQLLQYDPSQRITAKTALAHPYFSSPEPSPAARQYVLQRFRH
UniProt Q00535, whole entry, looked up: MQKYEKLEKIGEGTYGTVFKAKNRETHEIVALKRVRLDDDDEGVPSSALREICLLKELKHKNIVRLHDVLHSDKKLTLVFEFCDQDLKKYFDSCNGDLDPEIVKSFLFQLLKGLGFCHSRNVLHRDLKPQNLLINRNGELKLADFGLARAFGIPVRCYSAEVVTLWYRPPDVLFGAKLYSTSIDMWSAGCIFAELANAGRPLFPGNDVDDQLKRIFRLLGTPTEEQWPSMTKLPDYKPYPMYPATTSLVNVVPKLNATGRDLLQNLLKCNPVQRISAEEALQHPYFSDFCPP
UniProt Q00534, whole entry: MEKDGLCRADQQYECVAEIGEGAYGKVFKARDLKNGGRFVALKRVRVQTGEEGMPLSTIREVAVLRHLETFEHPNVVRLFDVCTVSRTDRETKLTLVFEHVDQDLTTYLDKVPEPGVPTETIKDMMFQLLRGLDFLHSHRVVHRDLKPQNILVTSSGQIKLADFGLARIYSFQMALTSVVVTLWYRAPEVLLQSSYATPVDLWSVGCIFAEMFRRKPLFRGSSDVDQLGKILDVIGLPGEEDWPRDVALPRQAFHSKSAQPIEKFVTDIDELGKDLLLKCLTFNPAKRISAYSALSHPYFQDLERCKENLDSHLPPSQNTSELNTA
UniProt P50613: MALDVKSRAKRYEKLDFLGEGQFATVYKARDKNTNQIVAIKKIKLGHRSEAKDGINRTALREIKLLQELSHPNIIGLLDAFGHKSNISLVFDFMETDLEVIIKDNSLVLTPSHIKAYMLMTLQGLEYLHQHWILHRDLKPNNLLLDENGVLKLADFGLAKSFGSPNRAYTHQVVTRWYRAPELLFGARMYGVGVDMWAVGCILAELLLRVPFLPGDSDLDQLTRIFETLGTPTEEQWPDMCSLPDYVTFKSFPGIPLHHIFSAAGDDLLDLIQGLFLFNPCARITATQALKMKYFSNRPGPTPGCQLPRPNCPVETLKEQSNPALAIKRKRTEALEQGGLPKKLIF
UniProt P50750, whole entry: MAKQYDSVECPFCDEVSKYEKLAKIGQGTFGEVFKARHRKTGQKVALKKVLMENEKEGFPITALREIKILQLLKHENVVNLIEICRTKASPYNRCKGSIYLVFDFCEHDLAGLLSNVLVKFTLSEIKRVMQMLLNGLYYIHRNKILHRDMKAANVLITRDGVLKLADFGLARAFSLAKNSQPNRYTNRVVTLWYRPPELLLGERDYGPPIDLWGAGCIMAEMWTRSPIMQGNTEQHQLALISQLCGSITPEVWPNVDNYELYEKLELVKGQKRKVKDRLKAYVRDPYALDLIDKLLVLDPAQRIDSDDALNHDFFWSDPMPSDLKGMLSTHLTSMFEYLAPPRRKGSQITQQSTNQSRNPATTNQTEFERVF
UniProt O96017, whole entry: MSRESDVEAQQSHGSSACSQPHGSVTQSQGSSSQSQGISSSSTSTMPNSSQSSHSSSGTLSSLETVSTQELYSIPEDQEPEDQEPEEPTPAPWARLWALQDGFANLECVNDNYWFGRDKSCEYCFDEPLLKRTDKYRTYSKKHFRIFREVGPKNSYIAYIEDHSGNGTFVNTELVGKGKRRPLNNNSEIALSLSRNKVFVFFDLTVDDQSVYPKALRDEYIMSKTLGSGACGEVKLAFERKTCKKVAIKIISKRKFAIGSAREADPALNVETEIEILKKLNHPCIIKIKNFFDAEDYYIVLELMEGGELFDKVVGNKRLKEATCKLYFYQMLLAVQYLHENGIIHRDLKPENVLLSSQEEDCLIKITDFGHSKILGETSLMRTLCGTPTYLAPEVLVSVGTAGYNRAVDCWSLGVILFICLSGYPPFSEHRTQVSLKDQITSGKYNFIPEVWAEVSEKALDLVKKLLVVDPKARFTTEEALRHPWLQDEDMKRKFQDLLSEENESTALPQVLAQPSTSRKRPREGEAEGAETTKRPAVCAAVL
UniProt P07333, whole entry: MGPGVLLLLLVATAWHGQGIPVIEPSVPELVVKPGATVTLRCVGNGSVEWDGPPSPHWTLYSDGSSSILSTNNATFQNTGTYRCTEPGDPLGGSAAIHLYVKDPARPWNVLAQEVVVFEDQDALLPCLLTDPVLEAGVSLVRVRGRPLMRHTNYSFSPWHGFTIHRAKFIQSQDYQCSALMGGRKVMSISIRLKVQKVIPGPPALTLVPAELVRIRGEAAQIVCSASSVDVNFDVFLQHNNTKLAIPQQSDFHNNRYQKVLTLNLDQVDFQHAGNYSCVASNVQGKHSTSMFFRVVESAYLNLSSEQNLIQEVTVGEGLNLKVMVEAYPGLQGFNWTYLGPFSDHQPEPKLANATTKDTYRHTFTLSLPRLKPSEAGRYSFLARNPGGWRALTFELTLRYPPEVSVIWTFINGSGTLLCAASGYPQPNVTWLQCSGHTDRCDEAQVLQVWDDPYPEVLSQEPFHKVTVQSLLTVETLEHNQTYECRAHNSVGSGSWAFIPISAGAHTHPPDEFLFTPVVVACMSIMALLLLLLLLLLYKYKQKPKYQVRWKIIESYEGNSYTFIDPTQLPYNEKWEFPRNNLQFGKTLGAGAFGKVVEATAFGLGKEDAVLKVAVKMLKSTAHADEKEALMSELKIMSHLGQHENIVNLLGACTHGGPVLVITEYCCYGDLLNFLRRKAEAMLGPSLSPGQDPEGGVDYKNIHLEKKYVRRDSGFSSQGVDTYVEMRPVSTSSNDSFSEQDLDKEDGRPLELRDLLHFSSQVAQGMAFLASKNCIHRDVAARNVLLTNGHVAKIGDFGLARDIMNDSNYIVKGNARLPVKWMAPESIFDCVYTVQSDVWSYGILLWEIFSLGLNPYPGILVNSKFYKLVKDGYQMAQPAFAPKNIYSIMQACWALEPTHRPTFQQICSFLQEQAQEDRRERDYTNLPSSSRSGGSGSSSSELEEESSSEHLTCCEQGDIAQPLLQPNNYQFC
UniProt P41240: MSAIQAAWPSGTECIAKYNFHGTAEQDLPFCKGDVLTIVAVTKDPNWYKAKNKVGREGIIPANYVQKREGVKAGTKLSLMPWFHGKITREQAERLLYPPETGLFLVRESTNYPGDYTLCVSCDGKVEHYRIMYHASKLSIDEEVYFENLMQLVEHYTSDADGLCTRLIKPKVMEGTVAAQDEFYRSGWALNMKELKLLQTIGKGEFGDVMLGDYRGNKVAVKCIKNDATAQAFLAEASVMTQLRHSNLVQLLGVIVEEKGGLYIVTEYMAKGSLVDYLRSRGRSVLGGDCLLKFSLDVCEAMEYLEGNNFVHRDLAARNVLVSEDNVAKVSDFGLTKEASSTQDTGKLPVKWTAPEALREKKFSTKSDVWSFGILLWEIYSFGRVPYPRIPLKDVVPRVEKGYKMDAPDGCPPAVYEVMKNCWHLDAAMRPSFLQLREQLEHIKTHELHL
UniProt Q9Y463, whole entry, looked up: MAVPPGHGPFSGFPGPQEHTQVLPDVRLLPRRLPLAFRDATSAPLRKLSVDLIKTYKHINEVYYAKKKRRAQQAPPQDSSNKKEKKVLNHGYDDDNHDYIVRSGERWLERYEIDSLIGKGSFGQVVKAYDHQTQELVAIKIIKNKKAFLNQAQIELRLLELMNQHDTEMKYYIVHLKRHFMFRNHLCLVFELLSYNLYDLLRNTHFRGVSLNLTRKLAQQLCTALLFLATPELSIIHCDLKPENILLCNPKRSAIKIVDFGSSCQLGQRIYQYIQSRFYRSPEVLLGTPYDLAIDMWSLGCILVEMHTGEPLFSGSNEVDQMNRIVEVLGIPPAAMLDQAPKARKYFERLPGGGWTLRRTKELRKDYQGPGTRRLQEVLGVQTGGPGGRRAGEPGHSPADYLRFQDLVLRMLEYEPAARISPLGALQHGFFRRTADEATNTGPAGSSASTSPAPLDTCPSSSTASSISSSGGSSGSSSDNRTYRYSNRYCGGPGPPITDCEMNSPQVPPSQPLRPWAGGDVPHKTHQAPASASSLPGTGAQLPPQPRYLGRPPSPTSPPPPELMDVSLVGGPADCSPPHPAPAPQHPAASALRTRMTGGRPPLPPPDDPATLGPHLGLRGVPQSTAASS
UniProt Q92630: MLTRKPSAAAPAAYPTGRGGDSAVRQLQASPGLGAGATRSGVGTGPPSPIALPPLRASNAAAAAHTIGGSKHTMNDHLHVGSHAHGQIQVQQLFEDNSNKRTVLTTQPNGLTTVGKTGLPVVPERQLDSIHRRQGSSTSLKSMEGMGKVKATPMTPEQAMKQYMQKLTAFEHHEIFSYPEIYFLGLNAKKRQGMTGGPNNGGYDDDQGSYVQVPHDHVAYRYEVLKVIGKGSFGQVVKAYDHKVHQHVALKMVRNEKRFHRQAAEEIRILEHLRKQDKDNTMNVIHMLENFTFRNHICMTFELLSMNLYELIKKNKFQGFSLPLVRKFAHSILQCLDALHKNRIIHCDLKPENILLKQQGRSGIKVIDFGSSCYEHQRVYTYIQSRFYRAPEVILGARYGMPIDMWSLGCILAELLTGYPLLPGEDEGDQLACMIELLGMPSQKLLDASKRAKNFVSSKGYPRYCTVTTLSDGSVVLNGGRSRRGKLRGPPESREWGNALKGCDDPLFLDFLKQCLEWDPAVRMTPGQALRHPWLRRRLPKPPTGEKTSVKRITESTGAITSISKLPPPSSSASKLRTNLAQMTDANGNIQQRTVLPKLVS

Measured: kinase-Nluc reporter destabilization hit call

CCn1c(=O)c(-c2cc[nH]n2)cc2c(C)nc(N)nc21 [Voxtalisib] (10 µM)
inactive: BRAF_V600E 0 | BTK 0 | CAMK2A 0 | CAMK2G 0 | CDK10 = 0 | CDK2 = 0 | CDK3 = 0 | CDK4 = 0 | CDK5 = 0 | CDK6 = 0 | CDK7 = 0 | CDK9 = 0 | CHEK2 = 0 | CSF1R 0 | CSK 0 | CSNK1A1 = 0 | CSNK1D 0 | DDR1 = 0 | DYRK1B 0 | DYRK2 = 0

CCCNC(=O)Nc1ccc(Oc2ncnc3cc(OC)c(OC)cc23)cc1Cl (2.5 µM)
inactive: BRAF_V600E 0 | BTK 0 | CAMK2A 0 | CAMK2G 0 | CDK10 = 0 | CDK2 = 0 | CDK3 = 0 | CDK4 = 0 | CDK5 = 0 | CDK6 = 0 | CDK7 = 0 | CDK9 = 0 | CHEK2 = 0 | CSF1R 0 | CSK 0 | CSNK1A1 = 0 | CSNK1D 0 | DDR1 = 0 | DYRK1B 0 | DYRK2 = 0

COc1ncccc1-c1cnn2ccc(N3CCN(C(=O)OC(C)C)CC3)nc12 (10 µM)
inactive: BRAF_V600E 0 | BTK 0 | CAMK2A 0 | CAMK2G 0 | CDK10 = 0 | CDK2 = 0 | CDK3 = 0 | CDK4 = 0 | CDK5 = 0 | CDK6 = 0 | CDK7 = 0 | CDK9 = 0 | CHEK2 = 0 | CSF1R 0 | CSK 0 | CSNK1A1 = 0 | CSNK1D 0 | DDR1 = 0 | DYRK1B 0 | DYRK2 = 0

NC(=S)n1[nH]c(-c2ccc([N+](=O)[O-])cc2)c(N=Nc2cccc(Cl)c2)c1=O (2.5 µM)
inactive: BRAF_V600E 0 | BTK 0 | CAMK2A 0 | CAMK2G 0 | CDK10 = 0 | CDK2 = 0 | CDK3 = 0 | CDK4 = 0 | CDK5 = 0 | CDK6 = 0 | CDK7 = 0 | CDK9 = 0 | CHEK2 = 0 | CSF1R 0 | CSK 0 | CSNK1A1 = 0 | CSNK1D 0 | DDR1 = 0 | DYRK1B 0 | DYRK2 = 0

C=C[C@@](C)(/C=C/c1ccc(O)cc1)CCC=C(C)C [Bakuchiol] (10 µM)
inactive: BRAF_V600E 0 | BTK 0 | CAMK2A 0 | CAMK2G 0 | CDK10 = 0 | CDK2 = 0 | CDK3 = 0 | CDK4 = 0 | CDK5 = 0 | CDK6 = 0 | CDK7 = 0 | CDK9 = 0 | CHEK2 = 0 | CSF1R 0 | CSK 0 | CSNK1A1 = 0 | CSNK1D 0 | DDR1 = 0 | DYRK1B 0 | DYRK2 = 0

Cn1ncc2cc(-c3cnc(N)c(Cl)c3N3CCC4(CCNC4=O)CC3)ccc21 (10 µM)
inactive: BRAF_V600E 0 | BTK 0 | CAMK2A 0 | CAMK2G 0 | CDK10 = 0 | CDK2 = 0 | CDK3 = 0 | CDK4 = 0 | CDK5 = 0 | CDK6 = 0 | CDK7 = 0 | CDK9 = 0 | CHEK2 = 0 | CSF1R 0 | CSK 0 | CSNK1A1 = 0 | CSNK1D 0 | DDR1 = 0 | DYRK1B 0 | DYRK2 = 0

CN(C)c1nc2c(Br)c(Br)c(Br)c(Br)c2[nH]1 (10 µM)
inactive: BRAF_V600E 0 | BTK 0 | CAMK2A 0 | CAMK2G 0 | CDK10 = 0 | CDK2 = 0 | CDK3 = 0 | CDK4 = 0 | CDK5 = 0 | CDK6 = 0 | CDK7 = 0 | CDK9 = 0 | CHEK2 = 0 | CSF1R 0 | CSK 0 | CSNK1A1 = 0 | CSNK1D 0 | DDR1 = 0 | DYRK1B 0 | DYRK2 = 0

C=CC(=O)N1C[C@H](COc2nc(Nc3cnn(C)c3)nc3[nH]cc(Cl)c23)[C@@H](OC)C1 (2.5 µM)
inactive: BRAF_V600E 0 | BTK 0 | CAMK2A 0 | CAMK2G 0 | CDK10 = 0 | CDK2 = 0 | CDK3 = 0 | CDK4 = 0 | CDK5 = 0 | CDK6 = 0 | CDK7 = 0 | CDK9 = 0 | CHEK2 = 0 | CSF1R 0 | CSK 0 | CSNK1A1 = 0 | CSNK1D 0 | DDR1 = 0 | DYRK1B 0 | DYRK2 = 0

Nc1c(C(=O)NCc2ccc(C(=O)NCCCC3CCCCC3)cc2)cnn1-c1ccccc1 (2.5 µM)
inactive: BRAF_V600E 0 | BTK 0 | CAMK2A 0 | CAMK2G 0 | CDK10 = 0 | CDK2 = 0 | CDK3 = 0 | CDK4 = 0 | CDK5 = 0 | CDK6 = 0 | CDK7 = 0 | CDK9 = 0 | CHEK2 = 0 | CSF1R 0 | CSK 0 | CSNK1A1 = 0 | CSNK1D 0 | DDR1 = 0 | DYRK1B 0 | DYRK2 = 0

COc1ccc(-c2coc3cc(O)ccc3c2=O)cc1 [Formononetin] (10 µM)
inactive: BRAF_V600E 0 | BTK 0 | CAMK2A 0 | CAMK2G 0 | CDK10 = 0 | CDK2 = 0 | CDK3 = 0 | CDK4 = 0 | CDK5 = 0 | CDK6 = 0 | CDK7 = 0 | CDK9 = 0 | CHEK2 = 0 | CSF1R 0 | CSK 0 | CSNK1A1 = 0 | CSNK1D 0 | DDR1 = 0 | DYRK1B 0 | DYRK2 = 0

CNc1nc(Nc2ccc(C(=O)N3CCOCC3)cc2OC)ncc1Cl (2.5 µM)
inactive: BRAF_V600E 0 | BTK 0 | CAMK2A 0 | CAMK2G 0 | CDK10 = 0 | CDK2 = 0 | CDK3 = 0 | CDK4 = 0 | CDK5 = 0 | CDK6 = 0 | CDK7 = 0 | CDK9 = 0 | CHEK2 = 0 | CSF1R 0 | CSK 0 | CSNK1A1 = 0 | CSNK1D 0 | DDR1 = 0 | DYRK1B 0 | DYRK2 = 0

COc1ccc(N=Nc2c(N)n[nH]c2N)cc1 (10 µM)
inactive: BRAF_V600E 0 | BTK 0 | CAMK2A 0 | CAMK2G 0 | CDK10 = 0 | CDK2 = 0 | CDK3 = 0 | CDK4 = 0 | CDK5 = 0 | CDK6 = 0 | CDK7 = 0 | CDK9 = 0 | CHEK2 = 0 | CSF1R 0 | CSK 0 | CSNK1A1 = 0 | CSNK1D 0 | DDR1 = 0 | DYRK1B 0 | DYRK2 = 0

c1ccc(-c2nc(=NCCN3CCOCC3)sn2-c2ccccc2)cc1 [VP3.15 (dihydrobromide)] (10 µM)
inactive: BRAF_V600E 0 | BTK 0 | CAMK2A 0 | CAMK2G 0 | CDK10 = 0 | CDK2 = 0 | CDK3 = 0 | CDK4 = 0 | CDK5 = 0 | CDK6 = 0 | CDK7 = 0 | CDK9 = 0 | CHEK2 = 0 | CSF1R 0 | CSK 0 | CSNK1A1 = 0 | CSNK1D 0 | DDR1 = 0 | DYRK1B 0 | DYRK2 = 0

Cc1nn(C)c2c1C(c1ccc(C(F)(F)F)cc1)C(C#N)=C(N)O2 (stereo not given) (10 µM)
inactive: BRAF_V600E 0 | BTK 0 | CAMK2A 0 | CAMK2G 0 | CDK10 = 0 | CDK2 = 0 | CDK3 = 0 | CDK4 = 0 | CDK5 = 0 | CDK6 = 0 | CDK7 = 0 | CDK9 = 0 | CHEK2 = 0 | CSF1R 0 | CSK 0 | CSNK1A1 = 0 | CSNK1D 0 | DDR1 = 0 | DYRK1B 0 | DYRK2 = 0

Cc1cc(Nc2nc(CC3(C(=O)O)CCN(C(=O)c4cccc(Cl)c4Cl)CC3)ccc2F)n[nH]1 (10 µM)
inactive: BRAF_V600E 0 | BTK 0 | CAMK2A 0 | CAMK2G 0 | CDK10 = 0 | CDK2 = 0 | CDK3 = 0 | CDK4 = 0 | CDK5 = 0 | CDK6 = 0 | CDK7 = 0 | CDK9 = 0 | CHEK2 = 0 | CSF1R 0 | CSK 0 | CSNK1A1 = 0 | CSNK1D 0 | DDR1 = 0 | DYRK1B 0 | DYRK2 = 0

CCc1cncnc1N1CCN(Cc2nc3ccc(C(F)(F)F)cc3[nH]2)CC1 (10 µM)
inactive: BRAF_V600E 0 | BTK 0 | CAMK2A 0 | CAMK2G 0 | CDK10 = 0 | CDK2 = 0 | CDK3 = 0 | CDK4 = 0 | CDK5 = 0 | CDK6 = 0 | CDK7 = 0 | CDK9 = 0 | CHEK2 = 0 | CSF1R 0 | CSK 0 | CSNK1A1 = 0 | CSNK1D 0 | DDR1 = 0 | DYRK1B 0 | DYRK2 = 0

Random excerpt: two entries already listed.
CNc1nc(Nc2ccc(C(=O)N3CCOCC3)cc2OC)ncc1Cl (2.5 µM)
inactive: BRAF_V600E 0 | BTK 0 | CAMK2A 0 | CAMK2G 0 | CDK10 = 0 | CDK2 = 0 | CDK3 = 0 | CDK4 = 0 | CDK5 = 0 | CDK6 = 0 | CDK7 = 0 | CDK9 = 0 | CHEK2 = 0 | CSF1R 0 | CSK 0 | CSNK1A1 = 0 | CSNK1D 0 | DDR1 = 0 | DYRK1B 0 | DYRK2 = 0

COc1ccc(N=Nc2c(N)n[nH]c2N)cc1 (10 µM)
inactive: BRAF_V600E 0 | BTK 0 | CAMK2A 0 | CAMK2G 0 | CDK10 = 0 | CDK2 = 0 | CDK3 = 0 | CDK4 = 0 | CDK5 = 0 | CDK6 = 0 | CDK7 = 0 | CDK9 = 0 | CHEK2 = 0 | CSF1R 0 | CSK 0 | CSNK1A1 = 0 | CSNK1D 0 | DDR1 = 0 | DYRK1B 0 | DYRK2 = 0

Following part

O=C1/C(=C\c2ccc(Cl)cc2)C=C(c2ccccc2)N1c1ccc(O)cc1 (2.5 µM)
inactive: BRAF_V600E 0 | BTK 0 | CAMK2A 0 | CAMK2G 0 | CDK10 = 0 | CDK2 = 0 | CDK3 = 0 | CDK4 = 0 | CDK5 = 0 | CDK6 = 0 | CDK7 = 0 | CDK9 = 0 | CHEK2 = 0 | CSF1R 0 | CSK 0 | CSNK1A1 = 0 | CSNK1D 0 | DDR1 = 0 | DYRK1B 0 | DYRK2 = 0

CCCCCCCCCCCCCCCCOP(=O)([O-])OCC[N+](C)(C)C [Miltefosine] (10 µM)
inactive: BRAF_V600E 0 | BTK 0 | CAMK2A 0 | CAMK2G 0 | CDK10 = 0 | CDK2 = 0 | CDK3 = 0 | CDK4 = 0 | CDK5 = 0 | CDK6 = 0 | CDK7 = 0 | CDK9 = 0 | CHEK2 = 0 | CSF1R 0 | CSK 0 | CSNK1A1 = 0 | CSNK1D 0 | DDR1 = 0 | DYRK1B 0 | DYRK2 = 0

— the supplement of paper PMC12823440, “Inhibitors supercharge kinase turnover through native proteolytic circuits” (Nature, 2025)
